Some of the results follow.

Chains of the proteins cited; added tags and fusions are not shown.
UniProt P13569, whole entry, looked up: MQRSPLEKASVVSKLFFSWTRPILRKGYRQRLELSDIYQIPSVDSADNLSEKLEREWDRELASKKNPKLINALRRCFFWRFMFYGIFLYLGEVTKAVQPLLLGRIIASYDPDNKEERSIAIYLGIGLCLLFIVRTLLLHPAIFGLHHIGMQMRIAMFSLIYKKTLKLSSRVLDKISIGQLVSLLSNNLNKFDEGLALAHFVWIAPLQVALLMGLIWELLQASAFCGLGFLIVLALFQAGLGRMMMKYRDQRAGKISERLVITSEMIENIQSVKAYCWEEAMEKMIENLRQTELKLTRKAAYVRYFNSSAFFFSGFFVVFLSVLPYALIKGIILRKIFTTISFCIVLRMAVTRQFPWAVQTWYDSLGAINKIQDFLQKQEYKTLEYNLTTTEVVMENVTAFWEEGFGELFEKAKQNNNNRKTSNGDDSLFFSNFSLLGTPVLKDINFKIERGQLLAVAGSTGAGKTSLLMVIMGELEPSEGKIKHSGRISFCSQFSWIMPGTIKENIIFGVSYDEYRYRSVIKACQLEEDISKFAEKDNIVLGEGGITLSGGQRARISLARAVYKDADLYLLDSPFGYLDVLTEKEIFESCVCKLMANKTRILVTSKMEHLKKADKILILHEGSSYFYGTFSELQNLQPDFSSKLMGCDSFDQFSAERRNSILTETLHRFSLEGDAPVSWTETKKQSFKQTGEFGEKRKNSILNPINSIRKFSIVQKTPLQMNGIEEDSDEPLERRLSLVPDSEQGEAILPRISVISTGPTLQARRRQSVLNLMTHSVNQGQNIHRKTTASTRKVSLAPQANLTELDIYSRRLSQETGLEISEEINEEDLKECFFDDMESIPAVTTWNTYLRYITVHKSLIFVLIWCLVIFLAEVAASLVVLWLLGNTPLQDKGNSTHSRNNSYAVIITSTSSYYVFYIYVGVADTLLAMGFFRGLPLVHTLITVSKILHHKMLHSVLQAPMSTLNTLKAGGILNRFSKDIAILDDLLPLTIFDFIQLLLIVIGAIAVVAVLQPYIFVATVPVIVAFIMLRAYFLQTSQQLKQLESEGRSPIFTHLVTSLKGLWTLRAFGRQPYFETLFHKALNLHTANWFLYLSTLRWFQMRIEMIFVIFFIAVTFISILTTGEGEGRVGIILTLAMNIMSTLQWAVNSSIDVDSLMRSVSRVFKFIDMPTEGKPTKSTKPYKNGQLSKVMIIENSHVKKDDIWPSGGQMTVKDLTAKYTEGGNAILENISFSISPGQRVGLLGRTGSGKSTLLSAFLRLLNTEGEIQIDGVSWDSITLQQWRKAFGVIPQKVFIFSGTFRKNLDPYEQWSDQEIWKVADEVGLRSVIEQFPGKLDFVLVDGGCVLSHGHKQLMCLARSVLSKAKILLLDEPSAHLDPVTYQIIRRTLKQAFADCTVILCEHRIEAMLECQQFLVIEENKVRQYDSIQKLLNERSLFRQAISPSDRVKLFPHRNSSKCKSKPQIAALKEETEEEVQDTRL

This assay concerns the target Cystic fibrosis transmembrane conductance regulator (Homo sapiens) (UniProt P13569). In words: correctors of F508del-CFTR surface localization, primary screen, imaging, HeLa, high-content microscopy, immunofluorescence (AID 1224864).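 Further: HeLa cells stably expressing F508del-CFTR stained with 3G11 antibody against NBD1.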 The following applies: PM immunofluorescence imaging, 24 h, measured here: total cellular F508del-CFTR signal, at 10 µM, stronger effect = higher value, relative to vehicle wells set at 100.
As to `CN(C(=O)Cc1ccc(Cl)c(Cl)c1)[C@@H]1CCCC[C@H]1N1CCCC1`, the total CFTR intensity was found to be 73%.

The record behind these values is PubChem BioAssay AID1224864 (Chung Lab, Department of Pediatrics, Emory University, 2016).
